Test results reported in PubChem BioAssay AID1347426 (Functional Genomics Laboratory (NCATS/FGL), 2020).
About 1,400 (4.5%) of roughly 31,000 sequences were called active.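 How the source made its calls: active means median seed-adjusted z-score above 1 or below -1; inactive means the rest.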 The list shows a part of the results.

Assay: Novel Modifiers of Survival Motor Neuron (SMN) Protein: Gene Identification via Genome-wide siRNA Screen;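 further: luminescence tracks full-length SMN protein made from the SMN2 reporter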
Conditions: HEK293T SMN2-luciferase reporter, siRNA knockdown, 72 h; actives lie on both sides
Summary of the method: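 Each of three siRNAs per gene is reverse-transfected (1 pmol) into reporter HEK293T cells whose luciferase output tracks SMN protein level. After 72 h culture, ONE-Glo luminescence is control-normalized, log10-transformed and MAD-standardized; Common Seed Analysis deprioritizes seed-driven hits.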

Sequence	median seed-adjusted z-score
GCAGCUUCAAGAUUUGUAATT against C1D	inactive: 0.021
AGGCUUAUUUUCACAGAAUTT against HRASLS3	inactive: 0.085
GCACGGAGCCUAUUUCGUATT against TAF6L	inactive: 0
CCCUGCAAGUUACCACAUATT against HYAL4	inactive: -0.236
GUUUCUACUCGGGAACAAATT against JUND	inactive: -0.334
GCAUUCGUGUGGGCAAGAATT against ACSBG2	inactive: 0.027
CCCUCUACGUCUCCACCAATT against PROKR2	inactive: 0.328
GAAUGGAUUUGGUGGUGAATT against RABL4	inactive: -0.154
GAGACAAUAUCUUCCGUAATT against RRAGA	inactive: 0.511
GGCUAUCACUUCAAUGUCATT against NR1I2	inactive: -0.922
CCCAAGCGCAAGAUCCUUATT against SCUBE3	inactive: 0.152
GCUAUGAACUUGACUGGAATT against RASL10A	inactive: 0.151
CCUCGACCCUGUUUCUUAUTT against ARL4D	inactive: -0.523
GGGUCUUCCUAGCACAUCATT against PPM1D	inactive: -0.66
GGUGAUGAGUGUUCCUACATT against KCNA4	inactive: -0.634
GCACCUCAGAGACCAGUGATT against SSH3	inactive: -0.0772
AGCGAUCUGUGCUCAACAATT against CACNB3	inactive: 0.573
GGAUAAGACGGUCCGUAAATT against MYO5A	inactive: 0.00798
UCAUCUUAAAGGACCGAUATT against SEC11B	active: 1.04
GUCAAGAAGUUGUAAGAGATT against PPIG	inactive: -0.0192
GGGUGGCAGGUAUAAGACUTT against P2RY11	inactive: 0.211
CCUUGAUAACAGUACAGAATT against PHEX	inactive: -0.0314
GCCGAUAUGUACAACAGAATT against TIMM10	inactive: 0.0738

Sequence	median seed-adjusted z-score
ACUUCAGGAUGGUCGCAGATT against SP140	inactive: 0.186
CCUGCGUCUCUACAACUAUTT against AURKB	inactive: 0.0901
UCAGUGCUCUGGACAGUAATT against SMARCD3	inactive: 0.247
GGAGAAUGCAAUCCGCUUATT against SVIL	inactive: 0.0852
GGUUCGCUAUCAGAAGUCATT against GBX2	inactive: -0.442
AGUUCUACCCUCUAGUGAATT against FZD1	inactive: -0.163
GCCUCACCUCAAUUGCAAATT against ANP32D	inactive: -0.714
GACUGGAAUUGGUAGAAUUTT against SYT9	inactive: 0.0419
CAAGGAAAGUAUUCCGAAUTT against ZC3HC1	inactive: -0.859
GAUCAUUAGUUGAAUCGGUTT against PPA2	inactive: -0.497
GCAUUGCUACUACGAGCUATT against TOMM70A	inactive: 0.0717
GAAUGUCCUAUGAUGCAUATT against HERC5	inactive: -0.422
GGAAAUGUUGGAGAACUCATT against RARA	inactive: -0.0195
ACAGCUACCAAAUAGCGAATT against RAET1G	inactive: -0.0655
CUACUGAAGUGACACUCUATT against STK36	inactive: -0.0489
CCAUCAUGAUGCUAGCUAUTT against AP3B2	active: -2.45
AGACCAUCACCAUAAUUUATT against SEC14L2	inactive: -0.253
CCACAUCUCUACUCGUGAATT against ULK4	inactive: 0.0834
CAAACUCCAUAAUACGGUATT against ASH1L	inactive: -0.197
GGUGUUCCCUUCGUCCGAATT against ALDOC	inactive: 0.119
GCAAAAAGAGCGAUCAGAATT against CNDP1	inactive: 0.203
GGAUCUCAUGAGGCGAAUATT against EIF5	inactive: 0.362
GAUCUUGCAUAGUUUACCATT against AP4B1	inactive: 0.0278

Sequence	median seed-adjusted z-score
GCCGCAACCUAGACAUCGATT against TUBA4A	inactive: -0.594
CAAUGACACCUGCAAGUAUTT against CD300A	inactive: -0.414
AGAGAAGACAUAUAGGAGATT against ZNF33A	inactive: 0.0628
GAAUAUGCACUGAAUAUGATT against ZNF484	inactive: 0.2
CCCUUCUACGUGCUCAACATT against SSTR3	inactive: 0
GGAUCACCUACAUUAGCAATT against TLR2	inactive: -0.0278
GAGUCAUAGUUGCAGCUGATT against PSMB5	active: -1.37
GGAGCGAAAUGUUCAGGUUTT against PSPH	inactive: -0.518
ACAGAGCAGUUCUCCUUUATT against CRYM	inactive: -0.373
GCGUGUUCGUGCACGUCUATT against MOBKL2A	inactive: 0.268
GCAUCGCACAGGUGGUCUATT against SLC25A22	inactive: -0.444
ACUCCUGUAUAUAUUCAAATT against TNFRSF9	inactive: 0.859
GGACCUUGGUCUUUCCUUGTT against HFE	inactive: -0.677
GCGUGAACCCUGUAUGGAATT against DYSF	inactive: -0.23
GGACUACAAAGGUUCUCGATT against CDH18	inactive: 0.21
GGAUGAGAAUGUUGCGCAUTT against ITGA4	inactive: 0
GAACGAAAAAGCAUGCACATT against PFDN1	inactive: 0.212
UGAGUUAACUAGACCUCAATT against ZNF284	inactive: 0.21
GCAUGUUCGUGGAGAACAATT against GPRC5C	inactive: 0.498
GGCUGUAACUUGAGUACUUTT against MTERF	inactive: 0.432
AGGAGAAUGUGAUCCGAGATT against TXNDC14	active: -2.39
GCGCCUUCCGAAAAGGACATT against SKI	inactive: -0.139

2 neighbouring records out of the list so far:
Sequence	median seed-adjusted z-score
GCCGCAACCUAGACAUCGATT against TUBA4A	inactive: -0.594
CAAUGACACCUGCAAGUAUTT against CD300A	inactive: -0.414

Single values from the entries so far:
AGGAGAAUGUGAUCCGAGATT against TXNDC14 – median seed-adjusted z-score: active: -2.39
GCGUGAACCCUGUAUGGAATT against DYSF – median seed-adjusted z-score: inactive: -0.23
